The exact form of at least one protein or probe is not confirmed.
Target: Tenascin-C (TN-C) (Homo sapiens) (UniProt P24821)
Experiment: competition with a labelled probe
Settings: 5'-NH2-C6, 3'-3'-T cap, filter competition vs 1 nM 99mTc-TTA1-MAG2, 2 nM TN-C

The chains behind the UniProt entries cited, without tags or fusion partners. Residues count along the entry.
UniProt P24821, 23-2201: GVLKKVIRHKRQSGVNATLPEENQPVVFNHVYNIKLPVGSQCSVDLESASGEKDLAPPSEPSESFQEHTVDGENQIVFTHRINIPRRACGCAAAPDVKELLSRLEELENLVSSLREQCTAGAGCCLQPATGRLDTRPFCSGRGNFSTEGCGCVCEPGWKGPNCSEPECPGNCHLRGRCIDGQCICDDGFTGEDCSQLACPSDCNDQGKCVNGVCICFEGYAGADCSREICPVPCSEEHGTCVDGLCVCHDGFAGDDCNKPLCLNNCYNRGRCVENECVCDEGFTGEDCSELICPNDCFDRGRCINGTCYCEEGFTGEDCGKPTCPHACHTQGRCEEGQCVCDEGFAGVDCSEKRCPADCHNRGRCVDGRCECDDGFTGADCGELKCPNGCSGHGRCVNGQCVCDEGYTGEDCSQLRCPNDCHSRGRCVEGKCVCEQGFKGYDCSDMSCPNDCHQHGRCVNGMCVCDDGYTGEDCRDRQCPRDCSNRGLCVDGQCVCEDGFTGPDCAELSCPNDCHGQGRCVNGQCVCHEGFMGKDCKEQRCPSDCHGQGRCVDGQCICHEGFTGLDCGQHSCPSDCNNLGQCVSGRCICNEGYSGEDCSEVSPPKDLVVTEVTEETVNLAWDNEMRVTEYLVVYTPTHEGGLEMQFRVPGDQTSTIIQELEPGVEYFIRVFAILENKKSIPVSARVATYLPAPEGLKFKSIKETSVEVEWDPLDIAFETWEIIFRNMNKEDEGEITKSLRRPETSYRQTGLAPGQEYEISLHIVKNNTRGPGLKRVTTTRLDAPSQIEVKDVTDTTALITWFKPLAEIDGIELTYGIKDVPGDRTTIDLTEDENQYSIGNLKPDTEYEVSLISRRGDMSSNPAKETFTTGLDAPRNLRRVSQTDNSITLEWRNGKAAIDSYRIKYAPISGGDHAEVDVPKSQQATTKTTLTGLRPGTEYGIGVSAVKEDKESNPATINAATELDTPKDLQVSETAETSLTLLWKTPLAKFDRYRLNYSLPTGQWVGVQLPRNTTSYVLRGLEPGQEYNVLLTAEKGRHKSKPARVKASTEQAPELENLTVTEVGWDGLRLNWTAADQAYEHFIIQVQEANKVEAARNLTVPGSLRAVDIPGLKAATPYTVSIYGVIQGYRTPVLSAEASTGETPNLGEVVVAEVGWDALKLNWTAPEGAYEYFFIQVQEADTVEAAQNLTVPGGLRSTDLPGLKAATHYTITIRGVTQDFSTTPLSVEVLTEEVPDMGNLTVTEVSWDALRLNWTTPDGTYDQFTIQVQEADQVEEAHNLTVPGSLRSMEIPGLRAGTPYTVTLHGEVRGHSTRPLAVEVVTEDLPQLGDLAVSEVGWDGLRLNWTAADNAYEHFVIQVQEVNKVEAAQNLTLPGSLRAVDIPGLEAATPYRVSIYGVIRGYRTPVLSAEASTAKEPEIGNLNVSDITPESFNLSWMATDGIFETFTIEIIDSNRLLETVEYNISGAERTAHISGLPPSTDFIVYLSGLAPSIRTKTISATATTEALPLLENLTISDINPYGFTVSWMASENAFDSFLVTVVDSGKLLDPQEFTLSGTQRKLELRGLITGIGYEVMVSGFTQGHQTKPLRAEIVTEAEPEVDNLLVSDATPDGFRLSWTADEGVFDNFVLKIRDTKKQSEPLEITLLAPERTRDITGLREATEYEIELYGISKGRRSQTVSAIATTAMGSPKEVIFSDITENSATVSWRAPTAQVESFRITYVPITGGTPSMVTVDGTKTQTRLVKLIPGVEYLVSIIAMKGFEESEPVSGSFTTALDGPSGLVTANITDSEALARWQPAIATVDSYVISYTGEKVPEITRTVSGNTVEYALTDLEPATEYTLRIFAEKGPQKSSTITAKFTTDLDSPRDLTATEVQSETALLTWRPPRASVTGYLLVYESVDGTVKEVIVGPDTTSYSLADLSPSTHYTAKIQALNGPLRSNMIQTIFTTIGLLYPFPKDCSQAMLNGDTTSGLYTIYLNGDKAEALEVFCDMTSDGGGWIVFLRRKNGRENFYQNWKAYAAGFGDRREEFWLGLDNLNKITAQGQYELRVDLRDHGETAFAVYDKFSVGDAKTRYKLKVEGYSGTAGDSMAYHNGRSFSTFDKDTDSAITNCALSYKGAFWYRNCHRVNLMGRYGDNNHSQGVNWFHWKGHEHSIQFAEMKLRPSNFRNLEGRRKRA

## GGGAGGACGCGUCGCCGUAAUGGAUGUUUUGCUCCCUG [TTA2]
mGmGmG mAmGG mAfCmG-(CH2CH2O)6-fCGfU fCGfC fCGfU mAmAfU mGmGmA fUmGfU fUfUfU mGfCfU fCfCfC UmG (m=2'-OMe, f=2'-F), spacer printed as (CH2CH2O)2 in claim 9, TBSMC pH 7.4, 1 mM CaCl2, 1 mM MgCl2, 37 C, variant of TTA1
  EC50: 0.031 µM

## GGGAGGACGCGUCGCCGUAAUGGAUGUUUUGCUCCCUG [TTA1]
(CH2CH2O)6 spacer between GGGAGGACG and CGUCGC, 2' sugar modifications not marked in printed sequence, TBSMC (20 mM Tris pH 7.4, 137 mM NaCl, 1 mM CaCl2, 1 mM MgCl2), 37 C
  EC50: 0.006 µM
